For assay [1], the target named is T1, 重组AFP抗原(爱必信生物，货号Abt-P-208，Genbank ID:174) (UniProt P02771).
T1 sequence (looked up): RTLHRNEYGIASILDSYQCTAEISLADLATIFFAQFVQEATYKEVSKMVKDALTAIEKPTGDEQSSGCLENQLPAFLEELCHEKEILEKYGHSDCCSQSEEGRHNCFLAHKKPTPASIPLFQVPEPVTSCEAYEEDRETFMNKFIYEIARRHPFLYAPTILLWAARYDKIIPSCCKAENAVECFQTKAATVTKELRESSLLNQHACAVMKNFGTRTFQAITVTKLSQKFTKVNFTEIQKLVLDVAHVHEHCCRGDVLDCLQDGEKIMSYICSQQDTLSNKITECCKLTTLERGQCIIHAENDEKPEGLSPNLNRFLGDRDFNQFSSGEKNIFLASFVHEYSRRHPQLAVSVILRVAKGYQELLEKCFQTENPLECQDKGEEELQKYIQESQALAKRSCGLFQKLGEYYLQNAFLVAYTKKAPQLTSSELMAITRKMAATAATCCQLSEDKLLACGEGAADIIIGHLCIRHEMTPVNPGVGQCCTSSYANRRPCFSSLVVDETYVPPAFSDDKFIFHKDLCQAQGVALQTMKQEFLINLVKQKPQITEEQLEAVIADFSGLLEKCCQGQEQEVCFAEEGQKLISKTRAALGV
The experiment in a line: Biacore SPR sequential injection.

For assay [2], the target named is T1, 重组AFP抗原(爱必信生物，货号Abt-P-208，Genbank ID:174). Briefly: ELISA additivity on coated antigen.
A further assay concerns the target T2, 血清标本中的AFP抗原 (UniProt P02771).
T2 sequence (looked up): T1 sequence (looked up)
Briefly: double-antibody sandwich chemiluminescent immunoassay, capture antibody.

Residue numbers refer to the chain shown, from its start. These are yes or no findings as the source states them, for the method shown. Some results given as binding are weak or reduced against the parent protein; the word gives no strength.

B1: 抗AFP纳米抗体1C5 (VHH)
VHH: QVQLQESGGGLVQAGGSLRLSCKASERTFSSYSMAWYRQAPGKKREFVASISWDDERTYYTDSVKGRFTISRPNAKNTVYLQMNSLKPEDTAVYYCAVGGLSDGLGPSYDYWGQGTQVTVSS
On to B1, for which the binding entry in assay [1] and in assay [2] was “binds” throughout.

B2: 纳米抗体2F5 (VHH)
VHH: QVQLQESGGGVVQAGGSLRLTCAASESIFSFAAMGWYRQAPGKQRELVARITGGDNINYADSVKGRFTISKDNAKNTVYLQMNSLKPEDTAVYYCNGEGYGSSWFDDGKNYWGKGTQVTVSS
On to B2, for which the binding result in assay [1] and in assay [2] was “binds” in each case.

B3: FC融合纳米抗体2F5 (Fc fusion, not shown: a dimerising Fc or GST)
chain: B2 VHH
On to B3, for which the binding result with 血清标本中的AFP抗原 was “binds”.

B4: 纳米抗体1A7 (VHH)
VHH: B2 VHH with V11L, T21S
Take B4: the binding entry in assay [1] and in assay [2] was “binds” throughout.

B5: FC融合纳米抗体1A7 (Fc fusion, not shown: a dimerising Fc or GST)
chain: B2 VHH with V11L, T21S
As for B5, the binding result in the assay with 血清标本中的AFP抗原 is “binds”.

Source of the values: patent CN113234166A.
